The list shows only some results of the screen, not a fair sample: it gathers tests that were run many times, whatever their T/C, doses with no T/C, and many T/C values between a quarter and a half above the control. Further doses and runs are listed elsewhere. T/C: endpoint of the treated group in % of that of the vehicle group. Some doses have a count of surviving animals in place of a T/C: the source holds a T/C of zero for them, seemingly a mark for toxic or unscored doses. Some survivor counts are full or nearly so, which does not show that the dose was tolerated: survival well below the control is almost never listed, so the zero probably covers shortened survival too. Counts of survivors are from the toxicity check (mostly the fifth day) where no day follows; animals may have died later. Schedule codes are those of the source, taken here to give the interval after Q, in days (D) or hours (H), and the number of doses after X. Some entries hold several experiments; their values stand side by side, smallest first. For survival time, the PubChem record calls one and a half times the control and up active, and a quarter to a half above the control has no call in these data; cut-offs in other NCI protocols can differ. Additions like (4×) give the number of equal values in this list. Some T/C values are followed by the survivors on the day toxicity was checked, most often the fifth; without a count, all were alive then.
Tested on: L1210 leukemia ip in BDF1 mice, survival T/C
Assay: NCI In Vivo Anticancer Drug Screen. Data for tumor model L1210 Leukemia (intraperitoneal) in B6D2F1 (BDF1) mice
Conditions: T/C endpoint: mean survival time, higher T/C = longer survival
[1] = dose: 32.0 mg/kg/injection, schedule: Q01DX001 (ip), vehicle: water

Structure (SMILES): O=C1N[C@@H]([C@H]2CC[C@H](Cl)CN2)C(=O)N[C@H]1[C@H]1CC[C@H](Cl)CN1
- T/C (dose: 0.25 mg/kg/injection, schedule: Q01DX001 (ip), vehicle: water, evaluated on day 5): 103 and 106 % of control
- T/C (dose: 0.25 mg/kg/injection, schedule: Q01DX001 (ip), vehicle: water, evaluated on day 30): 108 % of control
- T/C (dose: 0.25 mg/kg/injection, schedule: Q01DX001 (ip), vehicle: water, evaluated on day 60): 103 and 107 % of control
- T/C (dose: 0.4 mg/kg/injection, schedule: Q01DX009 (ip), vehicle: saline): 146 % of control
- T/C (dose: 0.5 mg/kg/injection, schedule: Q01DX001 (ip), vehicle: water, evaluated on day 5): 101 and 102 % of control
- T/C (dose: 0.5 mg/kg/injection, schedule: Q01DX001 (ip), vehicle: water, evaluated on day 30): 117 % of control
- T/C (dose: 0.5 mg/kg/injection, schedule: Q01DX001 (ip), vehicle: water, evaluated on day 60): 101 and 103 % of control
- T/C (dose: 0.5 mg/kg/injection, schedule: Q01DX009 (ip), vehicle: saline): 127 % of control
- T/C (dose: 0.5 mg/kg/injection, schedule: Q01DX009 (sc), vehicle: saline): 129 % of control
- T/C (dose: 0.5 mg/kg/injection, schedule: Q03HX008 (ip), vehicle: saline): 134 % of control
- T/C (dose: 0.8 mg/kg/injection, schedule: Q01DX009 (ip), vehicle: saline): 146 % of control
- T/C (dose: 1.0 mg/kg/injection, schedule: Q01DX001 (ip), vehicle: water, evaluated on day 5): 114 (2×) and 117 % of control
- T/C (dose: 1.0 mg/kg/injection, schedule: Q01DX001 (ip), vehicle: water, evaluated on day 30): 124 % of control
- T/C (dose: 1.0 mg/kg/injection, schedule: Q01DX001 (ip), vehicle: water, evaluated on day 60): 93, 109, 114 (2×), 118 % of control
- T/C (dose: 1.0 mg/kg/injection, schedule: Q01DX009 (ip), vehicle: saline): 144 % of control
- T/C (dose: 1.0 mg/kg/injection, schedule: Q04DX003 (ip), vehicle: saline): 143 % of control
- T/C (dose: 2.0 mg/kg/injection, schedule: Q01DX001 (ip), vehicle: water, evaluated on day 5): 115, 121, 125 (2×), 180, 256, 262 % of control
- T/C (dose: 2.0 mg/kg/injection, schedule: Q01DX001 (ip), vehicle: water, evaluated on day 30): 153 % of control
- T/C (dose: 2.0 mg/kg/injection, schedule: Q01DX001 (ip), vehicle: water, evaluated on day 60): 112, 120, 121, 125, 126 (2×), 182 % of control
- T/C (dose: 2.5 mg/kg/injection, schedule: Q01DX001 (ip), vehicle: saline): 138 and 144 % of control
- T/C (dose: 2.5 mg/kg/injection, schedule: Q01DX001 (ip), vehicle: water): 147 % of control
- T/C (dose: 3.0 mg/kg/injection, schedule: Q01DX001 (ip), vehicle: saline): 135 % of control
- T/C (dose: 4.0 mg/kg/injection, schedule: Q01DX001 (ip), vehicle: none): 138 % of control
- T/C (dose: 4.0 mg/kg/injection, schedule: Q01DX001 (ip), vehicle: other): 130 % of control
- T/C (dose: 4.0 mg/kg/injection, schedule: Q01DX001 (ip), vehicle: water, evaluated on day 5): 136, 140, 144, 154, 198, 306 % of control (2×)
- T/C (dose: 4.0 mg/kg/injection, schedule: Q01DX001 (ip), vehicle: water, evaluated on day 60): 118, 137, 140, 141, 142, 146, 154 % of control
- T/C (dose: 4.0 mg/kg/injection, schedule: Q01DX001 (sc), vehicle: saline): 142 % of control
- T/C (dose: 4.0 mg/kg/injection, schedule: Q01DX009 (ip), vehicle: saline, evaluated on day 30): 106 % of control
- T/C (dose: 4.0 mg/kg/injection, schedule: Q01DX009 (ip), vehicle: saline, evaluated on day 60): 92, 117, 229 % of control
- T/C (dose: 4.0 mg/kg/injection, schedule: Q01DX009 (ip), vehicle: water): 140 % of control
- survivor count (dose: 4.0 mg/kg/injection, schedule: Q01DX009 (sc), vehicle: saline): 10 of 10
- T/C (dose: 4.4 mg/kg/injection, schedule: Q01DX001 (ip), vehicle: saline, evaluated on day 5): 177 % of control
- T/C (dose: 4.4 mg/kg/injection, schedule: Q01DX001 (ip), vehicle: saline, evaluated on day 60): 148, 150, 160, 263 % of control
- survivor count (dose: 6.1 mg/kg/injection, schedule: Q01DX009 (ip), vehicle: saline): 6 of 6
- T/C (dose: 6.6 mg/kg/injection, schedule: Q01DX001 (ip), vehicle: saline, evaluated on day 5): 210 % of control
- T/C (dose: 6.6 mg/kg/injection, schedule: Q01DX001 (ip), vehicle: saline, evaluated on day 60): 221, 224, 262 % of control
- T/C (dose: 8.0 mg/kg/injection, schedule: Q01DX001 (ip), vehicle: water, evaluated on day 5): 116, 116 [8 of 10 alive], 158, 182, 216, 399, 408 % of control
- T/C (dose: 8.0 mg/kg/injection, schedule: Q01DX001 (ip), vehicle: water, evaluated on day 60): 184, 212, 220, 282, 283, 400, 412 % of control
- survivor count (dose: 8.0 mg/kg/injection, schedule: Q01DX009 (oral), vehicle: saline): 10 of 10
- T/C (dose: 8.0 mg/kg/injection, schedule: Q08DX002 (ip), vehicle: saline): 145 % of control
- T/C (dose: 10.0 mg/kg/injection, schedule: Q01DX001 (ip), vehicle: saline, evaluated on day 5): 328 % of control
- T/C (dose: 10.0 mg/kg/injection, schedule: Q01DX001 (ip), vehicle: saline, evaluated on day 30): 175 and 273 % of control
- T/C (dose: 10.0 mg/kg/injection, schedule: Q01DX001 (ip), vehicle: saline, evaluated on day 60): 232 [8 of 10 alive], 285, 440 [9 of 10 alive], 470 % of control
- T/C (dose: 16.0 mg/kg/injection, schedule: Q01DX001 (ip), vehicle: saline): 137 % of control [8 of 10 alive]
- T/C (dose: 16.0 mg/kg/injection, schedule: Q01DX001 (ip), vehicle: water, evaluated on day 5): 67, 72, 78, 82 (2×), 294 % of control
- T/C (dose: 16.0 mg/kg/injection, schedule: Q01DX001 (ip), vehicle: water, evaluated on day 60): 197 [8 of 10 alive], 249 [9 of 10 alive], 257 [8 of 10 alive], 291 % of control [7 of 10 alive]
- survivor count (dose: 16.0 mg/kg/injection, schedule: Q01DX001 (ip), vehicle: water): 1 of 10, 4 of 10, 6 of 10, 10 of 10
- T/C (dose: 16.0 mg/kg/injection, schedule: Q01DX001 (sc), vehicle: saline): 143 % of control [9 of 10 alive]
- survivor count (dose: 16.0 mg/kg/injection, schedule: Q01DX009 (oral), vehicle: saline): 10 of 10
- survivor count (dose: 20.0 mg/kg/injection, schedule: Q01DX001 (ip), vehicle: saline): 1 of 6
- survivor count (dose: 20.0 mg/kg/injection, schedule: Q01DX001 (ip), vehicle: water): 8 of 10
- T/C [1]: 59, 64, 65 % of control
- survivor count [1]: 2 of 10, 4 of 10, 5 of 10
- survivor count (dose: 32.0 mg/kg/injection, schedule: Q01DX001 (oral), vehicle: saline): 10 of 10
- survivor count (dose: 1600.0 mg/kg/injection, schedule: Q01DX001 (ip), vehicle: water): 6 of 10
- survivor count (dose: 3200.0 mg/kg/injection, schedule: Q01DX001 (ip), vehicle: water): 7 of 10
- T/C (dose: 250.0 micrograms/kg/injection, schedule: Q03HX024 (ip), vehicle: saline): 134 % of control

Reference: PubChem BioAssay AID248 (DTP/NCI, 2004)
